The source gives many values for each of these; only a part stands here.
Experiment: Stability of DPTM in plasma, tissue homogenates, urine and feces (QC samples)
Format: physicochemical, rat
Protocol: Stability of DPTM and IS was examined by comparing the analytes’ concentrations in freshly prepared samples with those of samples maintained under different conditions, including the 24 h storage at room temperature, three freeze and thaw cycles, and storage at −70 °C for 4 weeks, respectively. Analyzing three levels of QC samples were used to assess the stability (accuracy and precision) with six replicates.
For the construction of calibration curves, 20 μL of each corresponding standard working solution (0.05, 0.2, 0.5, 1, 2, 5, 10, 20 and 40 μg/mL) was evaporated to dryness by nitrogen at 40 °C. The calibration standards (5, 20, 50, 100, 200, 500, 1000, 2000 and 4000 ng/mL) were prepared by adding 200 μL of blank plasma, various tissue homogenates (including heart, liver, spleen, lung, kidney, large intestine, small intestine, ileum, cecum, bladder, brain, jejunum and colon) or urine and feces to the residue, respectively. Quality control (QC) samples (10, 200 and 3000 ng/mL) were obtained by the same way as the calibration standards. All solutions were stored at −70 °C before use for no longer than 4 weeks.

C=CC1(C)CC(OC(=O)CSc2nc(N)cc(N)n2)C2(C)C(C)CCC3(CCC(=O)C32)C(C)C1O (centres unmarked) [DPTM, 14-O-[(4,6-Diaminopyrimidine-2-yl)thioacetyl] mutilin]
Stability RE (Colon, 10 ng/mL, Freeze-thaw Cycles): 6.3% | Stability RE (Colon, 10 ng/mL, Long-term (−70 °C, 4 Weeks)): 4.8% | Stability RE (Colon, 200 ng/mL, Freeze-thaw Cycles): 7.2% | Stability RE (Colon, 200 ng/mL, Long-term (−70 °C, 4 Weeks)): 2.2% | Stability RE (Colon, 200 ng/mL, Short-term (25 °C, 24 h)): 6.8% | Stability RE (Colon, 3000 ng/mL, Freeze-thaw Cycles): −4.3% | Stability RE (Colon, 3000 ng/mL, Long-term (−70 °C, 4 Weeks)): 2.3% | Stability RE (Colon, 3000 ng/mL, Short-term (25 °C, 24 h)): 7.3% | Stability RE (Fecal, 10 ng/mL, Freeze-thaw Cycles): 4.8% | Stability RE (Fecal, 10 ng/mL, Long-term (−70 °C, 4 Weeks)): 3.3% | Stability RE (Fecal, 10 ng/mL, Short-term (25 °C, 24 h)): 3.2% | Stability RE (Fecal, 200 ng/mL, Freeze-thaw Cycles): 3.6% | Stability RE (Fecal, 200 ng/mL, Long-term (−70 °C, 4 Weeks)): 4.1% | Stability RE (Fecal, 200 ng/mL, Short-term (25 °C, 24 h)): 2.9% | Stability RE (Fecal, 3000 ng/mL, Freeze-thaw Cycles): 4.7% | Stability RE (Fecal, 3000 ng/mL, Long-term (−70 °C, 4 Weeks)): 4.3% | Stability RE (Fecal, 3000 ng/mL, Short-term (25 °C, 24 h)): 4.8% | Stability RE (Heart, 10 ng/mL, Freeze-thaw Cycles): 3.5% | Stability RE (Heart, 10 ng/mL, Long-term (−70 °C, 4 Weeks)): 3.3% | Stability RE (Heart, 10 ng/mL, Short-term (25 °C, 24 h)): 3.9% | Stability RE (Heart, 200 ng/mL, Freeze-thaw Cycles): −0.3% | Stability RE (Heart, 200 ng/mL, Long-term (−70 °C, 4 Weeks)): −0.7% | Stability RE (Heart, 200 ng/mL, Short-term (25 °C, 24 h)): −0.7% | Stability RE (Heart, 3000 ng/mL, Freeze-thaw Cycles): 6.3% | Stability RE (Heart, 3000 ng/mL, Long-term (−70 °C, 4 Weeks)): 6.5% | Stability RE (Heart, 3000 ng/mL, Short-term (25 °C, 24 h)): 6.3% | Stability RE (Plasma, 10 ng/mL, Freeze-thaw Cycles): 6.3% | Stability RE (Plasma, 10 ng/mL, Long-term (−70 °C, 4 Weeks)): 5.8% | Stability RE (Plasma, 10 ng/mL, Short-term (25 °C, 24 h)): 5.1% | Stability RE (Plasma, 200 ng/mL, Freeze-thaw Cycles): 7.9% | Stability RE (Plasma, 200 ng/mL, Long-term (−70 °C, 4 Weeks)): 7.3% | Stability RE (Plasma, 200 ng/mL, Short-term (25 °C, 24 h)): 6.8% | Stability RE (Plasma, 3000 ng/mL, Freeze-thaw Cycles): 1.7% | Stability RE (Plasma, 3000 ng/mL, Long-term (−70 °C, 4 Weeks)): 2% | Stability RE (Plasma, 3000 ng/mL, Short-term (25 °C, 24 h)): 1.5% | Stability RE (Urinary, 10 ng/mL, Freeze-thaw Cycles): 8.1% | Stability RE (Urinary, 10 ng/mL, Long-term (−70 °C, 4 Weeks)): 8.4% | Stability RE (Urinary, 10 ng/mL, Short-term (25 °C, 24 h)): 6.6% | Stability RE (Urinary, 200 ng/mL, Freeze-thaw Cycles): 4.2% | Stability RE (Urinary, 200 ng/mL, Long-term (−70 °C, 4 Weeks)): −1.2% | Stability RE (Urinary, 200 ng/mL, Short-term (25 °C, 24 h)): 5.3% | Stability RE (Urinary, 3000 ng/mL, Freeze-thaw Cycles): −5.5% | Stability RE (Urinary, 3000 ng/mL, Long-term (−70 °C, 4 Weeks)): −3.3% | Stability RE (Urinary, 3000 ng/mL, Short-term (25 °C, 24 h)): −5.6%

From PMC6413085, “A Validated HPLC-MS/MS Assay for 14-O-[(4,6-Diaminopyrimidine-2-yl)thioacetyl] Mutilin in Biological Samples and Its Pharmacokinetic, Distribution and Excretion via Urine and Feces in Rats” (Molecules, 2019)
